Values quoted from earlier work in patent US8431165B2, “Medicament for treatment of cancer and other diseases” (Swing Aerobics Licensing, Inc., priority 2004, dated 2013).
Some results were stated once for a whole list of compounds, not compound by compound. For at least one compound, name, drawing or mass did not settle the structure.

Tested on: radiogenic transformations [radiation-caused cancer tumors]
Settings: in vitro, cultured cells, irradiation

SMILES	inhibition of radiogenic transformations
CC/C=C\C/C=C\C/C=C\C/C=C\C/C=C\CCCC(=O)O [EPA]	80-100%
CC/C=C\C/C=C\C/C=C\C/C=C\C/C=C\C/C=C\CCC(=O)O [DHA, docosahexaenoic acid]	80-100%
